# Test results reported in PubChem BioAssay AID504847 (National Center for Advancing Translational Sciences (NCATS), 2011).
# Protein sequences, listed by entry. Tags and fused reporters are not part of them. Lines headed by an entry give the natural chain unless they say otherwise; changes in a name come on top.
# UniProt P11473: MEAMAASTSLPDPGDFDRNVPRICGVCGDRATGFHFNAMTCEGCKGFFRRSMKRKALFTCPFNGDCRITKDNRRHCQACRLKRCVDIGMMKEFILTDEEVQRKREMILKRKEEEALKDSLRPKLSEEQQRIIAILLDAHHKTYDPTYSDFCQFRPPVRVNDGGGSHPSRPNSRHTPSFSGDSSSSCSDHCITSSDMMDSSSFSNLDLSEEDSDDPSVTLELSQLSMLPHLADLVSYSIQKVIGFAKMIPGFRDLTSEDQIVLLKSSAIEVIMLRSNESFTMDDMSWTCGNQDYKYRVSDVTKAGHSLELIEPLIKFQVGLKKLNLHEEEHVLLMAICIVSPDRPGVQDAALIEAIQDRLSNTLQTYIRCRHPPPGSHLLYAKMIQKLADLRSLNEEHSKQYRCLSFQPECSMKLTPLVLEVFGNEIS
# Several values for one entry are separate records, joined by “and”; a condition that tells them apart may be missing. Equal entries are not always repeated. Out of some 400,000 compounds screened, about 3,700 (0.93%) were called active. Inconclusive means that the source gave no clear call. Such entries were picked first, then a sample of the others. Calls follow the shape of the dose curve; as a rule, active = well fitted inhibition curve with a large enough effect; inconclusive = small, poorly fitted or top-dose-only effect, or another doubt; inactive = no such curve, though single readings can be large or run the other way. Potencies of inconclusive entries are doubtful fits and often do not repeat.
# Target: Vitamin D3 receptor (Homo sapiens) (UniProt P11473)
# Assay: Inhibitors of the vitamin D receptor (VDR): qHTS
# Conditions: VDR-SRC2-3 peptide fluorescence polarization, 2 h; max response, negative = inhibition: hits give low values
# In short: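 Fluorescence polarization assay measuring small-molecule disruption of VDR binding to the coregulator peptide SRC2-3. Compounds were pin-transferred (23 nl) into the reagent mix and incubated 2 h at room temperature before reading.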
# % is scaled to controls: 0 for no effect and ±100 for the full control effect; potency is read from the fitted curve at half-maximal effect.
SMILES,"max response, negative = inhibition",Potency
Fc1ccc(Br)cc1C1C=C(c2ccc(Br)cc2)Nc2nnnn21 (configuration not stated),inactive: 2.1%,–
CC(C)C(C(=O)O)N1C(=O)/C(=C/C=C/c2ccco2)SC1=S (configuration not stated),inactive: -31.5%,–
CCCn1c(CCC(=O)Nc2ccccc2OC)nc2cccnc21,–,"inconclusive: 79.4 µM [inhibitor, partial curve, poor fit]"
Cc1cccc(C)c1Nc1c(-c2ccc(O)cc2)nc2sccn12,–,"inconclusive: 89.1 µM [inhibitor, single point]"
CCc1ccc(/C=C2/SC(=S)N(CCCC(=O)Nc3ccccc3C(=O)O)C2=O)cc1,–,"inconclusive: 89.1 µM [inhibitor, single point]"
NC(=S)N=Nc1ccc(NN=C(N)N)cc1,–,active: 5.62 µM and active: 17.8 µM
CSc1nccn1C(=O)c1ccccc1[N+](=O)[O-],–,"inconclusive: 79.4 µM [inhibitor, single point]"
Cc1ccc(/C=C/c2onc(C)c2S(=O)(=O)N2CCC(C(=O)Nc3cc(F)ccc3F)CC2)cc1,inactive: 7.59%,–
CC(=O)N/C(=C\c1ccccc1)C(=O)OCc1cc(C)ccc1C,–,"inconclusive: 5.62 µM [inhibitor, full curve, poor fit]"
Cc1ccc(-n2c(P(C)(=O)O)nc3ccccc32)cc1,–,"inconclusive: 79.4 µM [inhibitor, single point]"
O=C(O)/C=C/C(=O)Nc1ccc(SC(F)(F)C(F)(F)C(F)(F)F)cc1,–,"inconclusive: 79.4 µM [inhibitor, partial curve]"
COC(=O)CC1C(C)(C)C(=O)C2CC3=C4CC(=O)OC(c5ccoc5)[C@]4(C)CCC3[C@@]1(C)C2=O (some centres not stated),–,"inconclusive: 70.8 µM [inhibitor, partial curve, poor fit]"
COc1ccccc1N1C(=O)CC(N2CCN(c3ccc(Cl)cc3)CC2)C1=O (configuration not stated),inactive: 0.908%,–
CNS(=O)(=O)c1cc(-c2nnc(N3CCOCC3)c3ccccc23)ccc1C,inactive: -5.75%,–
CCCNC(=O)Cn1nc(-c2ccc(C)c(C)c2)c2cnc3ccc(F)cc3c21,inactive: 1.09%,–
CCCCc1ccc(CC(=O)Nc2cc(S(=O)(=O)N3CCOCC3)ccc2O)cc1,–,"inconclusive: 89.1 µM [inhibitor, single point]"
O=C(O)C1Nc2c(C(F)(F)F)ccc(Cl)c2C2C=CCC12 (configuration not stated),–,"inconclusive: 100 µM [inhibitor, single point]"
COc1ccccc1CCn1c(=O)c(-c2cc(F)cc(F)c2)nc2cncnc21,–,"inconclusive: 89.1 µM [inhibitor, single point]"
O=C(CSc1nnc(-c2ccco2)c(-c2ccco2)n1)Nc1ccccc1,–,"inconclusive: 89.1 µM [inhibitor, partial curve]"
O=C(COc1ccccc1)NNc1nc2c(F)cccc2s1,inactive: -3.46%,–
Nc1c(C(=O)Nc2ccc(F)cc2)sc(=S)n1-c1ccccc1F,–,"inconclusive: 56.2 µM [inhibitor, partial curve, poor fit]"
O=c1cnc2cncnc2n1Cc1ccc(F)cc1,–,"inconclusive: 56.2 µM [inhibitor, single point]"
Oc1ccccc1C1C=C(c2ccc3c(c2)OCO3)NC(c2cccc(Br)c2)N1 (configuration not stated),–,"inconclusive: 79.4 µM [inhibitor, single point]"

SMILES,"max response, negative = inhibition",Potency
COc1cccc2sc3cc(C#Cc4ccccn4)ccc3c(=O)c12,inactive: -4.59%,–
Cc1ccc(NC(=S)NNC(=S)Nc2cccc(C(F)(F)F)c2)cc1,–,active: 28.2 µM
CC1=NOC(=O)/C1=C\c1ccc(-c2cc(Cl)ccc2Cl)o1,–,active: 20 µM
CC(=O)N1c2ccc(Cl)cc2C2C=CCC2C1c1cccc2ccccc12 (configuration not stated),–,"inconclusive: 50.1 µM [inhibitor, partial curve, poor fit]"
COc1cc2c(cc1OC)CN(C(=O)c1cccc([N+](=O)[O-])c1)CC2,–,active: 79.4 µM
O=C(C[n+]1ccccc1)N/N=C/c1cc(Br)ccc1F,inactive: -7.56%,–
CC(C)C[C@@H](CNCC(=O)[C@H](Cc1ccccc1)NC(=O)c1[nH]cnc1C(=O)N[C@@H](C)CN)NC(=O)c1nc[nH]c1C(=O)N[C@@H](CC(=O)O)C(=O)O,–,"inconclusive: 79.4 µM [inhibitor, partial curve, poor fit]"
CCN=c1scc(-c2ccccc2)n1/N=C/c1ccccn1,inactive: -4.58%,–
COc1ccc(-c2cc(C(F)(F)F)nc(SCCC(=O)Nc3cccc(O)c3)n2)cc1,inactive: -19.5%,–
CCc1ccc(Nc2cc(C(=O)NCCCN(C)c3ccccc3)c3ccccc3n2)cc1,–,"inconclusive: 5.62 µM [inhibitor, single point]"
O=C(C=Cc1cccc(O)c1)c1ccccc1O,–,active: 39.8 µM
Cc1c(Cl)cccc1NC(=O)C(=O)NCC(c1cccnc1)N1CCN(c2ccccc2)CC1 (configuration not stated),inactive: 9.42%,–
COc1ccc(S(=O)(=O)c2ccc(O)cc2)cc1,inactive: -1.09%,–
O=c1c2c3c(sc2ncn1/N=C/c1ccncc1)CCCC3,–,"inconclusive: 56.2 µM [inhibitor, partial curve, poor fit]"
Cn1cc(C(F)(F)F)nc1-c1ccc(OCC(O)CNCCOc2ccc(O)c(C(N)=O)c2)cc1 (configuration not stated),inactive: -26.3% and inactive: 4.62% and inactive: 8.55%,–
FC(F)(F)c1ccccc1-c1cc(NCc2cccnc2)ncn1,–,"inconclusive: 50.1 µM [inhibitor, partial curve, poor fit]"
Cc1ccc(C(=O)NCC(c2ccco2)N2CCc3ccccc3C2)cc1 (configuration not stated),–,"inconclusive: 70.8 µM [inhibitor, partial curve, poor fit]"
COc1cc(/C=C/C(=O)OCC(=O)NC(=O)NC2CCCC2)ccc1OCC#N,–,"inconclusive: 50.1 µM [inhibitor, partial curve, poor fit]"
COc1ccc(/C=C/C(=O)c2ccc(NS(=O)(=O)c3ccc(C)cc3)cc2)cc1O,–,"inconclusive: 79.4 µM [inhibitor, single point]"
Cc1cn(-c2cc(NC(=O)c3ccc(C)c(NC(=O)c4cccc(-c5cn[nH]c(=O)c5)c4)c3)cc(C(F)(F)F)c2)cn1,inactive: 12.9%,–
CC(C)(C)OC(=O)N1CC=C2C(C#N)=C(N)C(C#N)(C#N)C(c3cccs3)C2C1 (configuration not stated),–,active: 35.5 µM
O=C(CS(=O)(=O)c1nc(-c2ccc(Cl)cc2)cn1-c1ccccc1)Nc1ccc(F)cc1F,–,"inconclusive: 39.8 µM [inhibitor, partial curve, poor fit]"
O=C1NN(c2cccc(Br)c2)C(=O)/C1=C\c1ccccc1,–,"inconclusive: 31.6 µM [inhibitor, partial curve, poor fit]"

SMILES,"max response, negative = inhibition",Potency
CCCCCCCCCCCCCCCC(=O)N[C@@H](COP(=O)(O)O)C(=O)O,–,active: 12.6 µM
Cc1ccccc1NC(=O)c1c(NC(=O)C(F)(F)F)sc2c1CCCCC2,–,"inconclusive: 50.1 µM [inhibitor, partial curve, poor fit]"
COc1ccc(NC(=O)C2CCN(C(=O)c3cccs3)CC2)c(OC)c1,–,"inconclusive: 25.1 µM [inhibitor, partial curve, poor fit]"
COc1ccc(NC(=O)CSc2nc3c(c(=O)[nH]2)CCC3)cc1,inactive: 9.9%,–
Cc1ccc(NC(=O)NNC(=O)c2cc3ccccc3cc2O)c(C)c1,–,"inconclusive: 14.1 µM [inhibitor, partial curve, poor fit]"
COC(=O)/C=c1/sc2nc3ccccc3n2c1=O,–,"inconclusive: 20 µM [inhibitor, full curve, poor fit]"
CCC1CCc2nc3sc(C(=O)Nc4ccc(F)c(F)c4)c(N)c3cc2C1 (configuration not stated),–,"inconclusive: 89.1 µM [inhibitor, single point]"
CC(=O)Nc1ccccc1NC(=O)c1ccc(C)cc1C,–,"inconclusive: 89.1 µM [inhibitor, single point]"
CCOc1ccccc1Nc1sc(C(=O)c2ccc(Cl)cc2)c(N)c1C(=O)NCCc1ccccc1,inactive: 7.72%,–
COc1cc(NC(=O)C2CC2)c(C(=O)O)cc1OC,inactive: -11.9%,–
O=C1Nc2ccccc2C1=Nc1ccc(Cl)cc1,–,"inconclusive: 12.6 µM [inhibitor, partial curve, poor fit]"
CN(c1ccccc1)c1nc(-n2ccnc2)nc(-n2ccnc2)n1,inactive: 2.23%,–
NNC(=O)c1[nH]c2ccc(Cl)cc2c1-c1ccccc1,–,active: 79.4 µM
COc1ccc(NCc2cc3ccc(OC)cc3n(CC(=O)Nc3cccc(OC)c3)c2=O)cc1,inactive: 2.85%,–
CCN(CC)c1cc2c(cc1F)c(=O)c(S(=O)(=O)c1ccc(C)cc1)cn2Cc1ccc(F)cc1,inactive: 10.8%,–
O=C(CSc1nnc(CNC(=O)c2ccco2)o1)Nc1ccccc1C(F)(F)F,inactive: 5.69%,–
COc1ccc(C(=O)N2CCCCC2C(=O)Nc2ccc(-n3nc(C)cc3C)cc2)o1 (configuration not stated),–,"inconclusive: 28.2 µM [inhibitor, partial curve, poor fit]"
O=C(Nc1cc(Cl)ccc1Cl)c1cc(S(=O)(=O)N2CCCc3ccccc32)ccc1F,inactive: 1.99%,–
CC1=CC(=O)C(C(C)C)=CC1=NC(=O)c1ccc(C)cc1,–,active: 25.1 µM
Cc1sc2ncnc(N3CCC(C(=O)Nc4ccc(Br)cc4Br)CC3)c2c1C,–,"inconclusive: 8.91 µM [inhibitor, partial curve, poor fit]"
CCC(C(=O)NC1CCCCC1)N(C(=O)c1snc(C(N)=O)c1N)c1ccc(OC)cc1OC (configuration not stated),–,"inconclusive: 79.4 µM [inhibitor, partial curve, poor fit]"

# Exported bar-delimited: part of the list above.
SMILES | max response, negative = inhibition | Potency
COc1ccc(C(=O)N2CCCCC2C(=O)Nc2ccc(-n3nc(C)cc3C)cc2)o1 (configuration not stated) | – | inconclusive: 28.2 µM [inhibitor, partial curve, poor fit]
O=C(Nc1cc(Cl)ccc1Cl)c1cc(S(=O)(=O)N2CCCc3ccccc32)ccc1F | inactive: 1.99% | –
CC1=CC(=O)C(C(C)C)=CC1=NC(=O)c1ccc(C)cc1 | – | active: 25.1 µM
Cc1sc2ncnc(N3CCC(C(=O)Nc4ccc(Br)cc4Br)CC3)c2c1C | – | inconclusive: 8.91 µM [inhibitor, partial curve, poor fit]
